This is an account of results in publication doi:10.1101/2020.07.08.194076.

Results are given in words; binding and its absence hold for the method and conditions named. Binding seen in cells or lysates may run through a third protein. For some of these results: Binding calls can cover weak binding; strength is not graded here. Tags and fused reporters may be left off the sequences shown.

Test [1] addresses SlGGPPS2 (tomato geranylgeranyl diphosphate synthase 2), C-terminal Myc tag (tomato (Solanum lycopersicum)). The test is described as follows: co-IP.
In test [2] the target is SlGGPPS3 (tomato geranylgeranyl diphosphate synthase 3), C-terminal Myc tag (tomato (Solanum lycopersicum)). The experiment in a line: co-IP.

B1: Phytoene synthase 1 (PSY1), tomato, C-terminal HA tag (enzyme, UniProt P08196 130-412)
chain: EYAKTFNLGTMLMTPERRRAIWAIYVWCRRTDELVDGPNASYITPAALDRWENRLEDVFNGRPFDMLDGALSDTVSNFPVDIQPFRDMIEGMRMDLRKSRYKNFDELYLYCYYVAGTVGLMSVPIMGIAPESKATTESVYNAALALGIANQLTNILRDVGEDARRGRVYLPQDELAQAGLSDEDIFAGRVTDKWRIFMKKQIHRARKFFDEAEKGVTELSSASRFPVWASLVLYRKILDEIEANDYNNFTKRAYVSKSKKLIALPIAYAKSLVPPTKTASLQR
For B1, the binding entry in test [1] is listed as “binds”; in test [2] it was “no binding”.

B2: Phytoene synthase 2 (PSY2), tomato, C-terminal HA tag (enzyme, UniProt P37273 26-310)
chain: EYAKTFYLGTMLMTPDRRRAIWAIYVWCRRTDELVDGPNASHITPQALDRWEARLEDIFNGRPFDMLDAALSDTVSRFPVDIQPFRDMVEGMRMDLWKSRYNNFDELYLYCYYVAGTVGLMSVPIMGIAPESKATTESVYNAALALGIANQLTNILRDVGEDARRGRVYLPQDELAQAGLSDEDIFAGKVTDKWRIFMKKQIQRARKFFDEAEKGVTELSSASRWPVLASLLLYRKILDEIEANDYNNFTRRAYVSKPKKLLTLPIAYARSLVPPKSTSCPLAKT
With B2, the figures for the binding entry in test [1] and in test [2] were “binds” and “no binding”, respectively.
